Assay results from patent publication US10746738B2, “Claudin-1 peptide reagents and methods” (THE REGENTS OF THE UNIVERSITY OF MICHIGAN, priority 2015, dated 2020).
Some entries share one result that the patent states for a list of compounds.

Molecular target: T1, claudin-1 (CLDN1) (Homo sapiens, UniProt O95832)
T1 construct: endogenous in cells; host or cells: SW620 human colorectal adenocarcinoma cells
T1 sequence (O95832 1-211): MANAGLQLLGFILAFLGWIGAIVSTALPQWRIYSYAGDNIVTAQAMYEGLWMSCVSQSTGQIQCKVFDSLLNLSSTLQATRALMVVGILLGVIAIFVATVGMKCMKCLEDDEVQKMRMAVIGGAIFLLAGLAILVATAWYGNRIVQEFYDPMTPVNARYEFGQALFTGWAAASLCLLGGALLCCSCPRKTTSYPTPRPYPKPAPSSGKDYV
Experiment: siRNA knockdown of CLDN1 expression, peptide and antibody binding to SW620 cells
Assay type: cell-based
Experimental: CLDN1 expression was knocked down using Dharmacon On-Target Plus SMARTpool Human CLDN1 siRNA (Thermo Scientific) according to the manufacturer's protocol. SW620 cells were plated overnight on coverslips in a 12-well plate at 0.2×10^6 cells/mL. The following day, cells were transfected with 3 μL DharmaFECT1 and either 25 nM CLDN1 or control siRNA. After 72 h, transfected cells were analyzed for CLDN1 expression through immunocytochemistry, a peptide binding study, or a Western blot of the cell lysate. For the immunocytochemistry experiment, cells were fixed with ice-cold methanol for 20 minutes at −20° C., blocked for 1 h at RT with PBS+2% BSA, stained with anti-human CLDN1 antibody at 5 μg/mL for 1 h at RT, then with goat anti-Rabbit AF488 (1:500) for 1 h at RT before being mounted on slides with DAPI with Prolong Gold. siRNA-transfected cells were also stained with 5 μM RTS-Cy5.5 or SPT-Cy5.5 for 30 minutes at 4° C., fixed with 4% PFA for 10 minutes at RT, then mounted on slides. […] Supernatant was saved, total protein concentration quantified via a BCA assay, and 10 ug protein of each sample run on a Novex 4-20% 1.5 mm protein gel before transferring to a PVDF membrane. […]
The specificity of peptide binding was validated on siRNA knockdown. […] The fluorescence intensities (mean±std) are shown (FIG. 2H). […]

## RTS*-Cy5.5: RTSPSSR labeled at the C-terminus with Cy5.5 via a GGGSK linker
  reduction in fluorescence intensity for binding to SW620 cells transfected with siRNA (siCLND1): > 4 fold
